# From US12239705B2, “Therapeutic mitigation of epithelial infection” (priority 2018, dated 2025)
# For at least one compound, name, drawing or mass did not settle the structure.
# Tested on: vaccinia virus
# Set-up: species or system mice
# Conditions: mouse, in vivo
smiles,measurement,value
N#CC[C@H](C1CCCC1)n1cc(-c2ncnc3[nH]ccc23)cn1 [Ruxolitinib],production of virus in the skin of infected animals,diminished production of virus in the skin of infected animals
